Publication PMC6355651

Amino acid sequences for entries named in this document (tags omitted).
UniProt P35222: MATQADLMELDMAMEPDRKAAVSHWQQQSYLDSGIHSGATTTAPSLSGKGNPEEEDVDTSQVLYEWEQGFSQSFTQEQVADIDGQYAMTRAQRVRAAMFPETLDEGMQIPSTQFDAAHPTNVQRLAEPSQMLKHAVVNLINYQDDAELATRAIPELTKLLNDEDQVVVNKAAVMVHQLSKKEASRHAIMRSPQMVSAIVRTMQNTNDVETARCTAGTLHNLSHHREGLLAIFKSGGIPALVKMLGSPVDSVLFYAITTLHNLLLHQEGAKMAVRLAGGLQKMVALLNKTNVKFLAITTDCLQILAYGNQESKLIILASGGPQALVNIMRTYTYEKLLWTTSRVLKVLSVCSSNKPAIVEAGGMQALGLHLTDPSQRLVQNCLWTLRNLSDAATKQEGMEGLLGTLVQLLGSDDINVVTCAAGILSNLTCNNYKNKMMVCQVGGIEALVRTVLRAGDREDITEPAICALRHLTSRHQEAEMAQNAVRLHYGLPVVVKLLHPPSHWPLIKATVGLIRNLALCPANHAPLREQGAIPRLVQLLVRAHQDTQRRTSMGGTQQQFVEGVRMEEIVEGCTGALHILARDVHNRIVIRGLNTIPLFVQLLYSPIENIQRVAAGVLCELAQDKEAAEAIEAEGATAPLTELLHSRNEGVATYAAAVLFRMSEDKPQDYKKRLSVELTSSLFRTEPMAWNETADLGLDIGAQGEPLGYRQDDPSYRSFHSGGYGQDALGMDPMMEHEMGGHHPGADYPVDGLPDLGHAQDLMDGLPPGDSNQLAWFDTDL

Biological target: FLAG-β-catenin (UniProt P35222)
Assay: affinity purification with mass spectrometry; FLAG-β-catenin immunoprecipitated from 293T cell lysates following EGF treatment; Coomassie blue staining and MS peptide sequencing

Row | Binder | binding
1 | SHC-binging protein 1 (SHCBP1) (protein, UniProt Q8NEM2 1-672) MADGSLTGGGLEAAAMAPERMGWAVEQELASLEKGLFQDEDSCSDCSYRDKPGSSLQSFMPEGKTFFPEIFQTNQLLFYERFRAYQDYILADCKASEVQEFTAEFLEKVLEPSGWRAVWHTNVFKVLVEITDVDFAALKAVVRLAEPYLCDSQVSTFTMECMKELLDLKEHRLPLQELWVVFDDSGVFDQTALAIEHVRFFYQNIWRSWDEEEEDEYDYFVRCVEPRLRLHYDILEDRVPSGLIVDYHNLLSQCEESYRKFLNLRSSLSNCNSDSEQENISMVEGLKLYSEMEQLKQKLKLIENPLLRYVFGYQKNSNIQAKGVRSSGQKITHVVSSTMMAGLLRSLLTDRLCQEPGEEEREIQFHSDPLSAINACFEGDTVIVCPGHYVVHGTFSIADSIELEGYGLPDDIVIEKRGKGDTFVDCTGADIKISGIKFVQHDAVEGILIVHRGKTTLENCVLQCETTGVTVRTSAEFLMKNSDLYGAKGAGIEIYPGSQCTLSDNGIHHCKEGILIKDFLDEHYDIPKISMVNNIIHNNEGYGVVLVKPTIFSDLQENAEDGTEENKALKIQTSGEPDVAERVDLEELIECATGKMELCARTDPSEQVEGNCEIVNELIAASTQKGQIKKKRLSELGITQADDNLMSQEMFVGIVGNQFKWNGKGSFGTFLF | binds
2 | NONO (protein, UniProt Q15233 1-471) MQSNKTFNLEKQNHTPRKHHQHHHQQQHHQQQQQQPPPPPIPANGQQASSQNEGLTIDLKNFRKPGEKTFTQRSRLFVGNLPPDITEEEMRKLFEKYGKAGEVFIHKDKGFGFIRLETRTLAEIAKVELDNMPLRGKQLRVRFACHSASLTVRNLPQYVSNELLEEAFSVFGQVERAVVIVDDRGRPSGKGIVEFSGKPAARKALDRCSEGSFLLTTFPRPVTVEPMDQLDDEEGLPEKLVIKNQQFHKEREQPPRFAQPGSFEYEYAMRWKALIEMEKQQQDQVDRNIKEAREKLEMEMEAARHEHQVMLMRQDLMRRQEELRRMEELHNQEVQKRKQLELRQEEERRRREEEMRRQQEEMMRRQQEGFKGTFPDAREQEIRMGQMAMGGAMGINNRGAMPPAPVPAGTPAPPGPATMMPDGTLGLTPPTTERFGQAATMEGIGAIGGTPPAFNRAAPGAEFAPNKRRRY | binds

Results are given in words; binding and its absence hold for the method and conditions named. In cells and extracts the contact can be indirect. These calls come from enrichment with a bait or labelling near it, and not all partners need be listed.
